Laboratory results reported in PMC12646314, “Structure and encapsulation of carbonic anhydrase within the α-carboxysome” (Proceedings of the National Academy of Sciences of the …, 2025).
Results are given in words; binding and its absence hold for the method and conditions named. For some of these results: Binding seen in cells or lysates may run through a third protein. Some results given as binding are weak or reduced against the parent protein; the word gives no strength. For some of these results: Sequences can lack the tags named with a protein.

Amino acid sequences for entries named in this document (tags omitted).
UniProt O85040: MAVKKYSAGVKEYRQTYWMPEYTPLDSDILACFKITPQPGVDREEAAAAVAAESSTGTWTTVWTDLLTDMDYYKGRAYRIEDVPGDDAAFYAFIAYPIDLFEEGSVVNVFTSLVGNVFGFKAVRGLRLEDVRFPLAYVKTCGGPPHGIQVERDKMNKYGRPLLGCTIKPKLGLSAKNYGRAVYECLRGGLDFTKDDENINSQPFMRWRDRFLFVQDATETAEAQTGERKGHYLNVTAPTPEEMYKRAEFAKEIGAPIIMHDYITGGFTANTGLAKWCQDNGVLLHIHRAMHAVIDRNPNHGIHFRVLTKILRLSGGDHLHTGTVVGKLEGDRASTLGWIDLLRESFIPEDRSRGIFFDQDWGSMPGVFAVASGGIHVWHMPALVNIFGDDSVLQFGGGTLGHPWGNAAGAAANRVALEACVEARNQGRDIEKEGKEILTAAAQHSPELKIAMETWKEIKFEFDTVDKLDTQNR

Assays:
[1] = target: T1, StrepII-CsoSCA (Halothiobacillus neapolitanus) (UniProt O85042); assay: pull-down; in vivo pull-down: StrepII-CsoSCA coexpressed with minishells and Rubisco, lysate on StrepTactin XT 4Flow high capacity, Buffer W, eluted with Buffer BXT, immunoblot
T1 sequence: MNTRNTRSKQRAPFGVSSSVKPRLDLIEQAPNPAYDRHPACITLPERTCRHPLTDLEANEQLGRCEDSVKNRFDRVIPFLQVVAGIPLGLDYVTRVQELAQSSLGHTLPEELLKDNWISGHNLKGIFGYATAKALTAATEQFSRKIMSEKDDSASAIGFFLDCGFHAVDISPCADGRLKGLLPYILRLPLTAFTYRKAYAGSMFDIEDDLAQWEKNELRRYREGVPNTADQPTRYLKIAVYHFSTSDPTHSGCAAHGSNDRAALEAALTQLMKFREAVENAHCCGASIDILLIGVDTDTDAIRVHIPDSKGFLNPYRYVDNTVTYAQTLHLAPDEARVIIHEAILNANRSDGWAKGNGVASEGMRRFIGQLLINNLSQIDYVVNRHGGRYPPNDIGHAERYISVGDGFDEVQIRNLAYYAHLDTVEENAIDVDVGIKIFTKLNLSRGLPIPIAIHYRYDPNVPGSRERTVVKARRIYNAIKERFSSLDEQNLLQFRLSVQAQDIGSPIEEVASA

[2] = target: T2, CsoSCA-His6 (CsoSCA fused to a C-terminal His6 tag) (Halothiobacillus neapolitanus) (UniProt O85042); assay: co-purification with assembled minishells (sucrose cushion and gradient, anion exchange), immunoblot; minishells (lacking CsoS2) coexpressed with CsoSCA and Rubisco; CbbL in purified minishells by immunoblot, against minishells lacking CsoSCA
T2 sequence: T1 sequence

[3] = target: T3, CsoS4A-CsoS1A minishell (Construct 4, S4A-S1A) (Halothiobacillus neapolitanus) (UniProt O85043+P45689); assay: co-purification with assembled minishells (sucrose cushion and gradient, anion exchange), immunoblot; CsoSCA constructs coexpressed with minishell constructs in E. coli TOP10; minishells purified; samples normalised to CsoS1A; anti-His blot
T3 sequence 1: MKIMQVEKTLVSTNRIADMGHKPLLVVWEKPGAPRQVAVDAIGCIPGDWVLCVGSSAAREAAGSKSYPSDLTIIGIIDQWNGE
T3 sequence 2: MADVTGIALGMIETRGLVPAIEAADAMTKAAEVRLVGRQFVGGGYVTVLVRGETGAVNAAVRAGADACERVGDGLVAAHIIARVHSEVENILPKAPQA

[4] = target: T4, StrepII-CsoSCA-His6 (Halothiobacillus neapolitanus), O85042; assay: pull-down; in vivo pull-down: StrepII-CsoSCA-His6 coexpressed with minishells, lysate on StrepTactinXT 4Flow, Buffer W, eluted with Buffer BXT, immunoblot; conditions: remark: other sources report otherwise
T4 chain: T1 sequence

[5] = target: T5, StrepII-CsoSCA (Halothiobacillus neapolitanus), O85042; assay: pull-down; in vivo pull-down: StrepII-CsoSCA coexpressed with minishells and Rubisco, lysate on StrepTactin XT 4Flow high capacity, Buffer W, eluted with Buffer BXT, immunoblot; conditions: remark: other sources report otherwise
T5 chain: T1 sequence

[6] = target: T6, CsoS1A (the major shell hexamer) (Halothiobacillus neapolitanus) (UniProt P45689); assay: cryo-EM structure; single-particle cryo-EM of purified T = 4 minishell/CsoSCA^ΔC (2.36 Å symmetry relaxed) and minishell/CsoSCA-C (3.05 Å); internal density seen at low contour, disordered
T6 sequence: T3 sequence 2

Molecule: CbbL (the large subunit of Rubisco) (from UniProt O85040 1-473)
- binding [1]: binds
- binding [2]: binds

B1: CsoSCA-His6 (CsoSCA fused to a C-terminal His6 tag) (enzyme, Halothiobacillus neapolitanus, UniProt O85042 1-514, looked up)
chain: T1 sequence
notes: CsoSCA of H. neapolitanus, UniProt O85042; called full-length CsoSCA in the discussion; also called full-length CsoSCA; source: E. coli TOP10, coexpressed with minishell constructs, co-purified with minishells; not shown: His6, C-terminal, kept
- binding [3]: binds

B2: CsoS1A (the major shell hexamer) (natural protein, Halothiobacillus neapolitanus)
chain: T3 sequence 2
notes: CsoS1A, major alpha-carboxysome shell protein of H. neapolitanus; also called CsoS1A shell hexamer; source: E. coli TOP10, expressed from the minishell construct; in lysate (pull-down) and in purified minishells (cryo-EM)
- binding [4]: binds
- binding [5]: binds

B3: CsoS4A (shell pentamer) (natural protein, Halothiobacillus neapolitanus)
chain: T3 sequence 1
notes: CsoS4A, alpha-carboxysome shell vertex protein of H. neapolitanus; also called CsoS4A pentamer; source: E. coli TOP10, expressed from the minishell construct, in purified minishells
- binding [6]: binds

B4: CbbS-His6 (the small subunit of Rubisco with a C-terminal His6 tag) (protein, UniProt P45686 1-110)
chain: MAEMQDYKQSLKYETFSYLPPMNAERIRAQIKYAIAQGWSPGIEHVEVKNSMNQYWYMWKLPFFGEQNVDNVLAEIEACRSAYPTHQVKLVAYDNYAQSLGLAFVVYRGN
- binding [1]: binds
